Some of these results come from one statement about several compounds together. At least one compound was matched to its structure with a doubt left.
Key:
Type in all cases: binding
[1] = biological target: 5-HT2A receptor (Homo sapiens, UniProt P28223); assay: Selectivity: percent inhibition at the 5-HT2A receptor
[2] = biological target: T1, 5HT2C receptor (Homo sapiens, UniProt P28335); assay: Selectivity: percent inhibition at the 5HT2C receptor
T1 sequence (P28335 33-458): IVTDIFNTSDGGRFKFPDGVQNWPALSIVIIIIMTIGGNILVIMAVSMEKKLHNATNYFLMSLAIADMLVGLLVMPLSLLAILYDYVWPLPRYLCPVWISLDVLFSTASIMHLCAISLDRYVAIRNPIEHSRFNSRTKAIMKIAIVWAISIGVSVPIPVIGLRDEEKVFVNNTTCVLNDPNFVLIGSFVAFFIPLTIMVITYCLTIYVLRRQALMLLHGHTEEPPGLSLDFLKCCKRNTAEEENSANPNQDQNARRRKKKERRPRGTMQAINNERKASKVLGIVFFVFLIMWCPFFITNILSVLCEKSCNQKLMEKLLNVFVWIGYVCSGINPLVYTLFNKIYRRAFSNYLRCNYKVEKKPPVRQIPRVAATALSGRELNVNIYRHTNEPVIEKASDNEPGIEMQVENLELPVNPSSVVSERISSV

Sequences of proteins named here, by UniProt entry; tags and fusion partners are left off.
UniProt P28223, whole entry: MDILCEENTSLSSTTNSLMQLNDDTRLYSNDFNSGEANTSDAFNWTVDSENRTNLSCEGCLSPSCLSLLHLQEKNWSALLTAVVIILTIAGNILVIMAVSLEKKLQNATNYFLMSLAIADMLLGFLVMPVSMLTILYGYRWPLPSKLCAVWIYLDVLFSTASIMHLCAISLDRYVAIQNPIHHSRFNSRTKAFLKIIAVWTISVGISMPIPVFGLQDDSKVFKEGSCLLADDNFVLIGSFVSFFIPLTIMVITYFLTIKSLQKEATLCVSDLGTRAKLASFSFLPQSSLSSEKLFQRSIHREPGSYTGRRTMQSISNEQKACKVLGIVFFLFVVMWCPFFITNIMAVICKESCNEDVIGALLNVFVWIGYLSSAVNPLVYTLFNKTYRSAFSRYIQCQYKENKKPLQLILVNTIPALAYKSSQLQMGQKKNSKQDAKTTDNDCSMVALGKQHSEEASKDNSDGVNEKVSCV
UniProt P34969, whole entry: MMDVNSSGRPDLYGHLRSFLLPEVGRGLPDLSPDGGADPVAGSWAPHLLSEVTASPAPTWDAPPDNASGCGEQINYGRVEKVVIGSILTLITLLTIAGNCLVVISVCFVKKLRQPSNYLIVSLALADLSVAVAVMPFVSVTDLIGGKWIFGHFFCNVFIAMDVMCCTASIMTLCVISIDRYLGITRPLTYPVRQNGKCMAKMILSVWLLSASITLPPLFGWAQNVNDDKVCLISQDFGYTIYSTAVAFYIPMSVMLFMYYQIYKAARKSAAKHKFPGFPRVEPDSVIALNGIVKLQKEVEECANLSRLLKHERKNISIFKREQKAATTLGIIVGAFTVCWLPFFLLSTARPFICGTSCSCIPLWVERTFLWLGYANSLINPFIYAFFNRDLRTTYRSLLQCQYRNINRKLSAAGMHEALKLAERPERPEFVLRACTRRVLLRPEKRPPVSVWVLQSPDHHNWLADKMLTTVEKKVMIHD

[3] = biological target: 5-HT7 receptor (Homo sapiens, UniProt P34969); assay: Selectivity: percent inhibition at the 5-HT7 receptor

O=S(=O)(c1cccc2ccccc12)n1cc(C2CCN3CCCC3C2)c2ncccc21 (single isomer, unassigned; more polar) [1-(1-Naphthalenesulfonyl)-3-(octahydro-7-indolizinyl)-4-azai] [3-(Octahydro-7-indolizinyl)-1-(1-naphthatenesulfonyl)-4-azaindole]
less than 10%: percent inhibition for the 5-HT2A receptor [1] | percent inhibition for the 5HT2C receptor [2] | percent inhibition for the 5-HT7 receptor [3]

Source: patent US6916818B2, “Azaindoles having serotonin receptor affinity” (NPS Allelix Corp., priority 1999, dated 2005)
